The results in this text go back to PubChem BioAssay AID1508615 (Milbrandt Lab, Department of Genetics, Washington …, 2020).

Chains of the proteins cited; added tags and fusions are not shown. Lines headed by an entry give the natural chain unless they say otherwise; changes in a name come on top.
UniProt Q6SZW1: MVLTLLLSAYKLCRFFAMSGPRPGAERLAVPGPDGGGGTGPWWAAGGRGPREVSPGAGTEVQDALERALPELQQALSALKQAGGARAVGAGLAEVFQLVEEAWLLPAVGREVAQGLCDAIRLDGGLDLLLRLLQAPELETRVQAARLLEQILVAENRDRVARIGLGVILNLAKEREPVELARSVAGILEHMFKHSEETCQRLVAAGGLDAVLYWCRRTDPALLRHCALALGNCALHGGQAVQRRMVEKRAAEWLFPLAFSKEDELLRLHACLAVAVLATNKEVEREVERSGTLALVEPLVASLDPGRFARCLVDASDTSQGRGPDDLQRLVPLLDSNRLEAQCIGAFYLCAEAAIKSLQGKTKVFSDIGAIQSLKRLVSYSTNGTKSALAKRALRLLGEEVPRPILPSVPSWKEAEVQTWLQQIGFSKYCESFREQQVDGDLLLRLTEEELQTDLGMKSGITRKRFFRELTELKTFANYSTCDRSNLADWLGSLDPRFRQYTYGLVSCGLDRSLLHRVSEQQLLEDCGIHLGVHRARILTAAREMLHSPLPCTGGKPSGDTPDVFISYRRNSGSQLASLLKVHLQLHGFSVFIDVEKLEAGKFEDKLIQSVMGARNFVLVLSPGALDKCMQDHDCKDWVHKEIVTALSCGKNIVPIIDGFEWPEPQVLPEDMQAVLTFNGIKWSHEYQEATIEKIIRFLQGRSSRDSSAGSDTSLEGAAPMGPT

Among all 1,600 compounds or so, about 20 (1%) were called active.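 The calls were made as follows: active = ratio of uncleaved NAD to its breakdown product ADP-ribose above 4, meaning the enzyme was inhibited; inactive = the rest.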 The list shows a part of the results.

For this test, the target named is NAD(+) hydrolase SARM1 (Homo sapiens) (UniProt Q6SZW1). The experiment in a line: inhibition of SAM-TIR NAD hydrolysis to ADPR – cell lysate, HPLC readout, primary screen (AID 1508615).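 Also: substrate NAD at 5 µM with 60 min at 37 °C.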 The note with it: HEK293T SAM-TIR lysate, NAD/ADPR ratio by HPLC; at 5 µM; hits give high values.
For `O=C(NC1CCCCC1)c1cc2ccccc2cc1O`, the NAD/ADPR ratio is inactive: 3.
Under `CSc1cccc(NC(=O)Nc2nc3c(C)cccc3s2)c1` stands inactive: 3.
In the case of `Nc1nc(N)c2cc(Sc3ccc4ccccc4c3)ccc2n1`, the NAD/ADPR ratio was inactive: 3.
Under `Clc1ccc(-c2c(C3=NCCCN3)nnn2-c2ccc(Cl)cc2)cc1` stands inactive: 3.
Under `CCOC(=O)c1c(NC(=S)NC)sc2c1CCCC2` stands inactive: 3; under `CCOC(=O)C1=C(Nc2ccc(OC)cc2)C(N)=NC1=N`, inactive: 3; under `COC1=C[C@@H](C)[C@@H]2C[C@H]3OC(O)C[C@H]4C(C)=C(OC)C(=O)[C@H]([C@@]2(C)C1=O)[C@@]34C` (some centres undefined), inactive: 3.
Regarding `N#CCc1cnc2ccccc2n1`, the NAD/ADPR ratio is inactive: 3.
Consider `O=C(Nc1cccnc1)c1cccc([N+](=O)[O-])c1`, for which the NAD/ADPR ratio was inactive: 3.
Under `O=C(c1ccc(Cl)nc1)c1cccs1` stands inactive: 3; under `c1ccc2[nH]c(-c3ccncc3)nc2c1`, inactive: 3; under `O=c1ccc(Cl)n[nH]1`, inactive: 3.
As for `Cc1cc(C)n(C(N)=NC(=O)c2ccc([N+](=O)[O-])cc2)n1`, the NAD/ADPR ratio was inactive: 3.
For `Cc1ccc(-c2nc(-c3nccc4ccccc34)oc2-c2ccccc2)cc1` the value was inactive: 3.
For the compound `S=c1nc[nH]c2c1ncn2C1CCCC1`, the NAD/ADPR ratio was inactive: 3.
Under `Cc1n[nH]c2c([N+](=O)[O-])c(=O)[nH]c(=O)n12` stands inactive: 3; under `Cc1ccc([N+](=O)[O-])cc1NC(=O)Nc1ccc(S(N)(=O)=O)cc1`, inactive: 3.
For `COc1cccc(OCC(O)CN2CCN(c3ccccc3)CC2)c1` (centres undefined) the value was inactive: 3; for `CCOC(=O)Cc1cc(=O)[nH]n(-c2ccccc2)c1=O`, inactive: 3; for `Cc1ccc(C#CC(C)(O)C(C)(C)C)cn1` (centres undefined), inactive: 3.
Under `O=C(Nc1nc2ccccc2s1)Nc1ccc([N+](=O)[O-])cc1Cl` stands inactive: 3.
Turning to `COc1cc2c(c(OC)c1O)C(=O)CO2`, the NAD/ADPR ratio is inactive: 3.
Regarding `COc1ccc(C2OC3=C(Nc4cc(C)c(C)cc4N3)C2=O)cc1` (centres undefined), the NAD/ADPR ratio is inactive: 3.
For `OCC(O)C1OCOC(C(O)CO)C1O` (centres undefined), the NAD/ADPR ratio was inactive: 3.
For `CO[C@@]12[C@H](COC(N)=O)C3=C(C(=O)C(C)=C(N)C3=O)N1C[C@@H]1N[C@@H]12` the value was inactive: 3; for `c1ccc(-c2nn(-c3ccccc3)[n+](-c3ccccc3)n2)cc1`, inactive: 3; for `COc1cc(Cl)c(CC(=O)c2c[nH]c3ccccc23)cc1OC`, inactive: 3.
Under `Nc1ccc(C(=O)Nc2cccc(N)c2)cc1` stands inactive: 3.
For `O=C(COc1ccc([N+](=O)[O-])cc1Cl)N1CCOCC1` the value was inactive: 3; for `C#CC(c1ccccc1)(c1ccccc1)n1ccnc1`, inactive: 3; for `Clc1ccc(-c2nc(-c3cc4cc(Cl)ccc4o3)cs2)cc1`, inactive: 3.
For `CCCCC[C@H](O)/C=C/[C@@H]1[C@@H](C/C=C\CCCC(=O)O)[C@@H](O)C[C@H]1O`, the NAD/ADPR ratio was inactive: 3.
Turning to `COc1cccc(NC(=S)Nc2ccc(O)cc2)c1`, the NAD/ADPR ratio was inactive: 3.
For `CC1CC(C)(C)C2=NCCN21` (centres undefined) the value was inactive: 3; for `CC1=NN(c2ccccc2)C(=O)C1N=Nc1ccc(S(N)(=O)=O)cc1` (centres undefined), inactive: 3; for `O=C1CCC(c2ccccc2)(c2ccccc2)CC1`, inactive: 3.
For `Cc1ccn2c(C(C)O)nnc2c1` (centres undefined) the value was inactive: 3.
Consider `O=C(O)CCC(=O)c1ccc2ccc3cccc4ccc1c2c34`, for which the NAD/ADPR ratio was inactive: 3.
For `Nc1ccc(C(=O)Nc2ccc(Nc3ccncc3)cc2)cc1` the value was inactive: 3.
Regarding `O=[N+]([O-])c1c(N2CCN(CCO)CC2)nc2ccccn12`, the NAD/ADPR ratio is inactive: 3.
Regarding `c1ccc(-n2ncc3cccnc32)cc1`, the NAD/ADPR ratio is inactive: 3.
With `CCC(C)NC(=O)CC(C)C` (centres undefined), the NAD/ADPR ratio is inactive: 3.
Turning to `CC(/C=C1\NC(=S)NC1=O)=C\c1ccccc1`, the NAD/ADPR ratio is inactive: 3.
Under `CCCN(CCC)CC(=O)N1CC(=O)Nc2ccccc21` stands inactive: 3; under `Cc1ccnc(NC(c2ccccc2)c2ccc3cccnc3c2O)c1` (centres undefined), inactive: 3.
For the compound `O=c1[nH]c(=S)c2ncn(-c3ccccc3)c2[nH]1`, the NAD/ADPR ratio was inactive: 3.
Under `COc1ccc(-c2cc3ccccc3[nH]2)cc1` stands inactive: 3; under `Nc1ccnn1-c1ccccc1`, inactive: 3.
Consider `O=C(O)Cc1sc(=O)[nH]c1O`, for which the NAD/ADPR ratio was inactive: 3.
Under `O=C1C(=Nc2cccc(Cl)c2)CC(c2ccc(Cl)cc2)N1c1cccc(Cl)c1` (centres undefined) stands inactive: 3; under `Cc1ccc(S(=O)(=O)CCOC(=O)CNC(=O)OCc2ccccc2)cc1`, inactive: 3.
For the compound `CCOC(=O)C(=CNc1ccccc1Cl)C(=O)OCC`, the NAD/ADPR ratio is inactive: 3.
For `Cc1nc2ccc(N)nc2nc1C` the value was inactive: 3; for `COc1ccc(OCC(O)CN2CCN(c3ccc(Cl)cc3)CC2)cc1` (centres undefined), inactive: 3; for `C=C1SC(=Nc2c(C)cccc2Cl)N(C(=O)c2sc3ccccc3c2Cl)C12CCCCC2`, inactive: 3.
Under `COc1c(NC=O)c2c(c([N+](=O)[O-])c1OC)C(=O)OC2` stands inactive: 3; under `Cc1ccccc1NC(=S)Nc1ccccn1`, inactive: 3.
For `O=S1(=O)CSCS(=O)(=O)C1` the value was inactive: 3; for `Cc1ccc(C)c(C(=O)CCC(=O)O)c1`, inactive: 3; for `O=C1c2ccccc2C(=Cc2cccnc2)c2ccccc21`, inactive: 3.
In the case of `O=C(Nc1ccc(Nc2ccncc2)cc1)c1ccc(Nc2ccnc3ccc([N+](=O)[O-])cc23)cc1`, the NAD/ADPR ratio is inactive: 3.
Regarding `CSc1nc(=S)cc(C)[nH]1`, the NAD/ADPR ratio is inactive: 3.
`CCCOc1ccc(-c2nc(-c3ccc([N+](=O)[O-])cc3)cs2)cc1`: the NAD/ADPR ratio was inactive: 3.
As for `Cc1[nH]c(=S)[nH]c(=O)c1CCC1OCCO1`, the NAD/ADPR ratio is inactive: 3.
In the case of `CC(C)(C)N1CC(OC(N)=O)C1`, the NAD/ADPR ratio was inactive: 3.
Regarding `Cc1ccc(NCCN(C)C)c2c(=O)c3cc(O)ccc3sc12`, the NAD/ADPR ratio is inactive: 3.2.
In the case of `c1ccc2c(c1)[nH]c1c3ccccc3sc21`, the NAD/ADPR ratio was inactive: 3.
For `NC(=O)Oc1cccc(OC(N)=O)c1`, the NAD/ADPR ratio is inactive: 3.
Take `COc1c(NC(C)=O)c2ccccc2c2ccccc12`: the NAD/ADPR ratio is inactive: 3.
Under `COc1ccccc1NC(=O)Oc1cccc(OC(=O)c2ccccc2)c1` stands inactive: 3.
With `CCN(CC)CCN1C(=O)c2cccc3cc(N)cc(c23)C1=O`, the NAD/ADPR ratio is inactive: 3.
Turning to `Nc1c(Cl)cc(S(N)(=O)=O)cc1S(N)(=O)=O`, the NAD/ADPR ratio is inactive: 3.
Regarding `Cc1ccc(N=Nc2c(O)c3ccccc3[nH]c2=O)c(S(=O)(=O)N(C)C)c1`, the NAD/ADPR ratio was inactive: 3.
For `Cc1cc(NC(=O)c2ccccc2)c(Cl)cc1N` the value was inactive: 3.
